Experimental findings from patent EP0408371B1 (SMITHKLINE BEECHAM CORPORATION, priority 1989, dated 1994) are described below.

This data set is described as follows: peptide synthesis. The conditions noted are these: coupling step.

“pGlu-(γ-OBz) Glu-(β-OBz) Asp-Sub-(ε-Z) Lys-COOBz” displayed a step yield of 69%.

Regarding BOC-Asp-(β-OBz)-Sub-Lys-(ε-Z)COOBz, the step yield is on record as 73%.

“BOC-(γ-OBz)Glu-(β-OBz)Asp-Sub-(ε-Z)Lys-COOBz” displayed a step yield of 68%.
